{"source": "patent US20110001042A1", "about": "“ASSESSING TREATMENT COMPLIANCE” (priority 2007, published 2011)", "key": {"[1]": {"experiment": "limit of quantitation"}, "[2]": {"experiment": "interference of other steroids with measurement of fluticasone-17-beta-carboxylic acid in pooled urine", "details": "mean of specimens"}}, "note": "“And” between values parts separate entries of the source, which are not always exact repeats. Equal entries are not always repeated.", "data": [{"smiles": "CCC(=O)O[C@]1(C(=O)O)[C@H](C)C[C@H]2[C@@H]3C[C@H](F)C4=CC(=O)C=C[C@]4(C)[C@@]3(F)[C@@H](O)C[C@@]21C", "note": "[Fluticasone 17β carboxylic acid]", "values": [{"measurement": "Minimum (Conc), Mean (limit of quantitation)", "setting": "[1]; mean of 20 replicates", "value": 10.4, "unit": "pg/mL"}, {"measurement": "Minimum (Conc)", "setting": "[1]; replicates 1-20, listed as F17bCOOH", "value": "10.6 pg/mL (2×) and 15.3 pg/mL and 11.9 pg/mL and 9.5 pg/mL and 9.8 pg/mL and 8.3 pg/mL (2×) and 12.8 pg/mL and 11.1 pg/mL and 8.2 pg/mL and 12.1 pg/mL and 11.3 pg/mL and 10.4 pg/mL and 10.1 pg/mL and 11.7 pg/mL and 8.9 pg/mL and 8.6 pg/mL and 10.8 pg/mL and 7.7 pg/mL"}, {"measurement": "% Difference from F17bCOOH alone, Mean", "setting": "[2]; with DOC standard", "value": "−8.8", "unit": "%"}, {"measurement": "% Difference from F17bCOOH alone, Mean", "setting": "[2]; with synthetic glucocorticoids", "value": 8.8, "unit": "%"}]}]}
